Binding data for four substances are collected here from PMC9537141.

Chains of the proteins cited; added tags and fusions are not shown. Residues count along the entry.
UniProt Q99623: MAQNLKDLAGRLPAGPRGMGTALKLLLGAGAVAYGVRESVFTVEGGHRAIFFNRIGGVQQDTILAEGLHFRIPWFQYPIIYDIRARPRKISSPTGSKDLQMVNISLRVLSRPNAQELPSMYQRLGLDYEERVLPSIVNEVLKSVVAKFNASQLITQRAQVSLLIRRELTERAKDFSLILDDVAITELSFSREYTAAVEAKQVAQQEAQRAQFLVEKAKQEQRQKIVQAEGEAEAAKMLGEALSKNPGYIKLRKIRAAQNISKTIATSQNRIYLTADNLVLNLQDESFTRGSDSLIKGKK
UniProt P09103, residues 20-509: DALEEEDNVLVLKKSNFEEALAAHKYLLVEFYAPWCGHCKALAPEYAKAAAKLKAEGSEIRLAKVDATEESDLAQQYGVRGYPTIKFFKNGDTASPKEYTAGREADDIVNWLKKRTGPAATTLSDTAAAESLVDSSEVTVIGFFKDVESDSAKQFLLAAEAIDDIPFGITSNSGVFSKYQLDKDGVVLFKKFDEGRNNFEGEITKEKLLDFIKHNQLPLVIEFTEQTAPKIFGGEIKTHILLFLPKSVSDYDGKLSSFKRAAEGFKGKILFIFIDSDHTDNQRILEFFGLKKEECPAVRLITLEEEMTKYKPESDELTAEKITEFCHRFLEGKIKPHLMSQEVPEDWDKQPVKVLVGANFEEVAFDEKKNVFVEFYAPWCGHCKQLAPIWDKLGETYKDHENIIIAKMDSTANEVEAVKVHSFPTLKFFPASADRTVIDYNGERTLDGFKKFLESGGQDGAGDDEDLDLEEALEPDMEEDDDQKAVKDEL
UniProt P11021, residues 19-654: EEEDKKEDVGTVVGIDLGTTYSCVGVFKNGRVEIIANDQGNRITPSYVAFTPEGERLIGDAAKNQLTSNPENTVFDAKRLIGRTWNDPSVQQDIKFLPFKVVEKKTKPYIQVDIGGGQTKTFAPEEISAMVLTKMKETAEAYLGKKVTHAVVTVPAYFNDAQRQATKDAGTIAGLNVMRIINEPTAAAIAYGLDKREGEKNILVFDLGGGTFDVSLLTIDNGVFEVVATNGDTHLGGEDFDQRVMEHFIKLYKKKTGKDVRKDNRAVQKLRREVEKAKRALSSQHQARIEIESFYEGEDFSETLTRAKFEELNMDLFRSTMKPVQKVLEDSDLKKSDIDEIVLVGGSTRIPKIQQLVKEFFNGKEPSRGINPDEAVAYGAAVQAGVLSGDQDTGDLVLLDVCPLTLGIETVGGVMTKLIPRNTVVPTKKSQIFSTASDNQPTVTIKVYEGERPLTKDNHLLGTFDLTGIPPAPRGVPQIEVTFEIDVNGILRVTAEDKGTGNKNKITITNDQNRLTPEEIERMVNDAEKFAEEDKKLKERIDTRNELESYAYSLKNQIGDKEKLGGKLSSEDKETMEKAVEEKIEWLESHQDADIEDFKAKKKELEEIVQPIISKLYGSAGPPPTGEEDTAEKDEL
UniProt P20029, residues 20-655: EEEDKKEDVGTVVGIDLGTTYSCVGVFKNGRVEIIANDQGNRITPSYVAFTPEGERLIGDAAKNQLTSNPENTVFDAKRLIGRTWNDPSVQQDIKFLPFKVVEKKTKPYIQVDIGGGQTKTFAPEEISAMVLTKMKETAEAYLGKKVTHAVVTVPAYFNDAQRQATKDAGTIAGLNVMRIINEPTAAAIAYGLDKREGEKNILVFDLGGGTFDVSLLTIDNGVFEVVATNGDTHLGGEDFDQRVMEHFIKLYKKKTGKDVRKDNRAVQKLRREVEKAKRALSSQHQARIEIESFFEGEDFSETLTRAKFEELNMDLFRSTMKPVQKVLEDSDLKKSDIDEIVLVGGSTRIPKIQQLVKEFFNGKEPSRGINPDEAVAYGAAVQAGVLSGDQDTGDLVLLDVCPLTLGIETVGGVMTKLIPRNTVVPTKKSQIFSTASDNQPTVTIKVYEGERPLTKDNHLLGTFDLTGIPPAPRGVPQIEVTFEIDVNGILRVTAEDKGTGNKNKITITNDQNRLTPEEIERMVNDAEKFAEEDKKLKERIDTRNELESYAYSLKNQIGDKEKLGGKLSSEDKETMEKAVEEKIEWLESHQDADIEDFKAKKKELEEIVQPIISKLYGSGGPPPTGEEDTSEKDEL
UniProt P07237, residues 18-508: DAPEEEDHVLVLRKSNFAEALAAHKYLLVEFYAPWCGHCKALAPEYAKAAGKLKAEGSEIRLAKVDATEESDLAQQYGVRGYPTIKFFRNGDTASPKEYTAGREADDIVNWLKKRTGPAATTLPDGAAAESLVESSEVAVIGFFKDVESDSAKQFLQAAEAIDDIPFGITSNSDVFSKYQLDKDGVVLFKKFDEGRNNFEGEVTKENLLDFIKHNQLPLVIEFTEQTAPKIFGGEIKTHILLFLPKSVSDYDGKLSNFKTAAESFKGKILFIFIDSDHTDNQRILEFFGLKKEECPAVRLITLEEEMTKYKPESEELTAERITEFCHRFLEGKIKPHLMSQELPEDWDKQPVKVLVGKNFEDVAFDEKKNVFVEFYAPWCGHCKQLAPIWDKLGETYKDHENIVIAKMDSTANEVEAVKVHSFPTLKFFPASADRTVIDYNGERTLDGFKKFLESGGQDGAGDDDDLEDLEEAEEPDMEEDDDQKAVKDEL
UniProt O35129: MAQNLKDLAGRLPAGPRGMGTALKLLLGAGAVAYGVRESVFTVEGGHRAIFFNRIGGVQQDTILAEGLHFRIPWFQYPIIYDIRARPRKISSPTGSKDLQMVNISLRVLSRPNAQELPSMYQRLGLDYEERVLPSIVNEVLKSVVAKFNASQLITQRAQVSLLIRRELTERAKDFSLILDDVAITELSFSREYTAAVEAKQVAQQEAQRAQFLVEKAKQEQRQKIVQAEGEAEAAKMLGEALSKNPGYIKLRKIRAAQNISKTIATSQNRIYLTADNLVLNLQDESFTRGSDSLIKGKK

One experiment addresses Flag-PHB2, purified (UniProt Q99623). Put plainly: pull-down; Flag-pull down in vitro: purified Flag-PHB2 or Myc-PDI immobilized on the beads, incubated with purified Myc-PDI or Flag-PHB2; 4 h at 4 °C; immunoblot with anti-PDI or anti-PHB2; both purified.
Experiment [1] deals with Protein disulfide isomerase (PDI), endogenous in MEF cells (mouse (endogenous in MEF)) (UniProt P09103). Put plainly: co-IP; endogenous proteins in lysates of HCT116 or MEF cells, untreated or 24 h after γ-ray (4 Gy) or cisplatin (20 μM); primary antibody or non-specific IgG with protein G-agarose beads, 4 °C overnight, five washes with RIPA buffer; western blot. In general terms: In western blotting, separated proteins are transferred to a membrane and probed.

In experiment [2] the target is GRP78, endogenous in HCT116 cells (human (endogenous in HCT116)) (UniProt P11021). Described as above.
The target of experiment [3] is GRP78, endogenous in MEF cells (mouse (endogenous in MEF)) (UniProt P20029). Described as above.

These are yes or no findings as the source states them, for the method shown. For some of these results: In cells and extracts the contact can be indirect. Some results given as binding are weak or reduced against the parent protein; the word gives no strength.

“Myc-PDI, purified (from UniProt P07237 18-508)”: in the experiment with Flag-PHB2, purified, the binding entry is recorded as “binds”. In the case of “PHB2, endogenous in MEF cells (from UniProt O35129 1-299)”, the binding result in experiment [1] is on record as “binds”.

Turning to “Protein disulfide isomerase (PDI), endogenous in HCT116 cells (from UniProt P07237 18-508)”, the binding result in experiment [2] is recorded as “binds”. As to “Protein disulfide isomerase (PDI), endogenous in MEF cells (from UniProt P09103 20-509)”, the binding entry in experiment [3] is listed as “binds”.
